# Source: article PMC12224964
# These are yes or no findings as the source states them, for the method shown. In cells and extracts the contact can be indirect. Binding can be weak; no strength is given.
# Target: T1, VPS41 (as in the co-immunoprecipitations with KAI1) (UniProt P49754)
# T1 sequence: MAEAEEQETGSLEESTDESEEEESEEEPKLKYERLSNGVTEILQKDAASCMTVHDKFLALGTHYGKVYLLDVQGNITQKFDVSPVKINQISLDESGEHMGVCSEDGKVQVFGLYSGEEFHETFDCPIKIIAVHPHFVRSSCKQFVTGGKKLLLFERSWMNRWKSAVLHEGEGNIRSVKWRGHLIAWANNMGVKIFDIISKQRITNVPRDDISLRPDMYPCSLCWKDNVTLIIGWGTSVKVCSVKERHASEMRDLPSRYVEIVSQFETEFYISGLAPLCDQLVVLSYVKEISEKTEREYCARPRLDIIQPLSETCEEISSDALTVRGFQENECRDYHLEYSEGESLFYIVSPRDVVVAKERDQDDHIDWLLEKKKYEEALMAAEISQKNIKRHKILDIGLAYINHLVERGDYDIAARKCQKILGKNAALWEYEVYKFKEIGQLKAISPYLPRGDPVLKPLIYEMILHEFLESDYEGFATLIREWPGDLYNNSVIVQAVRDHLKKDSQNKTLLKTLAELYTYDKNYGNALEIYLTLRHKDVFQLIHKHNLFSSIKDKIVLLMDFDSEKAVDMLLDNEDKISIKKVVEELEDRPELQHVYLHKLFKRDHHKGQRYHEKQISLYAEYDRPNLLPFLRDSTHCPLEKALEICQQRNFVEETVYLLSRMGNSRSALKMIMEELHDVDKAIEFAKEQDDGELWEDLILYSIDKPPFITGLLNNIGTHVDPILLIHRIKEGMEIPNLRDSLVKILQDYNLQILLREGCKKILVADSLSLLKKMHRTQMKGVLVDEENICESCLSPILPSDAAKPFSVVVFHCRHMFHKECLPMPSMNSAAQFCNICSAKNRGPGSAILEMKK
# Experiment: co-IP; HEK-293T cells transfected with VPS41 or KAI1 truncation plasmids
substance,measurement,value
KAI1-Δ111-228 (domain or fragment),binding,binds
